PubChem BioAssay AID1224828 | NIAID, 2016

Purpose: 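Regulators linking TLR4 signalling to p65 nuclear translocation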 (primary screen)
Cell system: mouse RAW264.7 G9 macrophage reporter cells (GFP-p65, Tnf promoter-mCherry)
Reagent: siRNA pool against mouse genes, 100 nM
Duration: 2 days siRNA transfection, then 40 min LPS before fixation
Conditions: LPS (Salmonella minnesota R595) at 10 ng/ml
Detection: 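Microscopy ratio of nuclear to perinuclear-ring GFP-p65 signal, scaled to the plate median; gene score is the average of two replicate robust z-scores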
Scale: p65 translocation robust z-score: higher = more nuclear NF-kappaB p65 after LPS than the plate median; nuclear/cytoplasmic p65 ratio: higher = more nuclear NF-kappaB p65
Hit rule: 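Active if robust z is above 3.3 (negative regulators) or below -1.56, the Tlr4 control median (positive regulators); activity score 50 or more; control wells not called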
Calls: active = hit (p65 shift raised or lowered); inactive = no clear change
In all, the deposit lists about 17,000 reagents; below is a random part of them. In the full data, 762 (4.5%) got an active call. 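Active calls include both raised and lowered p65 entry, mostly lowered; wells with fewer than 50 cells lack a z-score.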 The raw values are shown without normalisation. Entries without a mark were called inactive. A reagent listed more than once was tested more than once; the source does not tell the runs apart.

How did the screen score Itgb2l?
p65 translocation robust z-score: 1.24; nuclear/cytoplasmic p65 ratio, rep 1: 1.74; nuclear/cytoplasmic p65 ratio, rep 2: 1.59; low cell count flag: enough cells to score

For Slc25a37, what was measured?
p65 translocation robust z-score: -0.41; nuclear/cytoplasmic p65 ratio, rep 1: 1.71; nuclear/cytoplasmic p65 ratio, rep 2: 1.54; low cell count flag: enough cells to score

Which result is listed for Slc46a1?
p65 translocation robust z-score: -0.36; nuclear/cytoplasmic p65 ratio, rep 1: 1.52; nuclear/cytoplasmic p65 ratio, rep 2: 1.73; low cell count flag: enough cells to score

With Gucy1a2, what was measured?
p65 translocation robust z-score: 0.35; nuclear/cytoplasmic p65 ratio, rep 1: 1.48; nuclear/cytoplasmic p65 ratio, rep 2: 1.42; low cell count flag: enough cells to score

With Selenok, how do the results read?
p65 translocation robust z-score: -0.86; nuclear/cytoplasmic p65 ratio, rep 1: 1.3; nuclear/cytoplasmic p65 ratio, rep 2: 1.15; low cell count flag: enough cells to score

With Rgma, how do the results read?
p65 translocation robust z-score: -0.47; nuclear/cytoplasmic p65 ratio, rep 1: 1.33; nuclear/cytoplasmic p65 ratio, rep 2: 1.19; low cell count flag: enough cells to score

For Exosc4, how do the results read?
p65 translocation robust z-score: -0.85; nuclear/cytoplasmic p65 ratio, rep 1: 1.4; nuclear/cytoplasmic p65 ratio, rep 2: 1.36; low cell count flag: enough cells to score

With Casp12, how do the results read?
p65 translocation robust z-score: -2.16 (active); nuclear/cytoplasmic p65 ratio, rep 1: 1.18; nuclear/cytoplasmic p65 ratio, rep 2: 1.53; low cell count flag: enough cells to score

With Or5m13b, how do the results read?
p65 translocation robust z-score: -0.26; nuclear/cytoplasmic p65 ratio, rep 1: 1.49; nuclear/cytoplasmic p65 ratio, rep 2: 1.65; low cell count flag: enough cells to score

For Hif1an, what does the deposit list?
p65 translocation robust z-score: -0.6; nuclear/cytoplasmic p65 ratio, rep 1: 1.39; nuclear/cytoplasmic p65 ratio, rep 2: 1.34; low cell count flag: enough cells to score

Which result is listed for Nop2?
p65 translocation robust z-score: 0.5; nuclear/cytoplasmic p65 ratio, rep 1: 1.56; nuclear/cytoplasmic p65 ratio, rep 2: 1.46; low cell count flag: enough cells to score

For Prl7a1, how do the results read?
p65 translocation robust z-score: 1.42; nuclear/cytoplasmic p65 ratio, rep 1: 1.48; nuclear/cytoplasmic p65 ratio, rep 2: 1.38; low cell count flag: enough cells to score

With Slc27a5, how do the results read?
p65 translocation robust z-score: -0.57; nuclear/cytoplasmic p65 ratio, rep 1: 1.33; nuclear/cytoplasmic p65 ratio, rep 2: 1.2; low cell count flag: enough cells to score

For Itgb3, what was measured?
p65 translocation robust z-score: -0.64; nuclear/cytoplasmic p65 ratio, rep 1: 1.37; nuclear/cytoplasmic p65 ratio, rep 2: 1.32; low cell count flag: enough cells to score

What did the screen give for Stk26?
p65 translocation robust z-score: 1.13; nuclear/cytoplasmic p65 ratio, rep 1: 1.82; nuclear/cytoplasmic p65 ratio, rep 2: 1.57; low cell count flag: enough cells to score

For Stk26, what was measured?
p65 translocation robust z-score: 0.79; nuclear/cytoplasmic p65 ratio, rep 1: 1.54; nuclear/cytoplasmic p65 ratio, rep 2: 1.57; low cell count flag: enough cells to score

For Catsperz, what was measured?
p65 translocation robust z-score: -1.37; nuclear/cytoplasmic p65 ratio, rep 1: 1.27; nuclear/cytoplasmic p65 ratio, rep 2: 1.19; low cell count flag: enough cells to score

With Mrps21, what was measured?
p65 translocation robust z-score: -1.27; nuclear/cytoplasmic p65 ratio, rep 1: 1.64; nuclear/cytoplasmic p65 ratio, rep 2: 1.35; low cell count flag: enough cells to score

How did the screen score Lamp3?
p65 translocation robust z-score: -0.21; nuclear/cytoplasmic p65 ratio, rep 1: 1.49; nuclear/cytoplasmic p65 ratio, rep 2: 1.44; low cell count flag: enough cells to score

How did the screen score LOC243676 (retired record)?
p65 translocation robust z-score: -0.39; nuclear/cytoplasmic p65 ratio, rep 1: 1.52; nuclear/cytoplasmic p65 ratio, rep 2: 1.21; low cell count flag: enough cells to score

What did the screen give for Ppp3ca?
p65 translocation robust z-score: 0.2; nuclear/cytoplasmic p65 ratio, rep 1: 1.51; nuclear/cytoplasmic p65 ratio, rep 2: 1.45; low cell count flag: enough cells to score

What did the screen give for Tmem205?
p65 translocation robust z-score: -1.91 (active); nuclear/cytoplasmic p65 ratio, rep 1: 1.42; nuclear/cytoplasmic p65 ratio, rep 2: 1.43; low cell count flag: enough cells to score

With Src, what does the deposit list?
nuclear/cytoplasmic p65 ratio, rep 1: 1.88; nuclear/cytoplasmic p65 ratio, rep 2: 1.16; low cell count flag: fewer than 50 cells per well; well left out of scoring

For Phxr4, what does the deposit list?
p65 translocation robust z-score: 0.32; nuclear/cytoplasmic p65 ratio, rep 1: 1.52; nuclear/cytoplasmic p65 ratio, rep 2: 1.25; low cell count flag: enough cells to score

With Gas2l1, what was measured?
p65 translocation robust z-score: 0.09; nuclear/cytoplasmic p65 ratio, rep 1: 1.69; nuclear/cytoplasmic p65 ratio, rep 2: 1.57; low cell count flag: enough cells to score

What is on record for Rrp9?
p65 translocation robust z-score: -0.2; nuclear/cytoplasmic p65 ratio, rep 1: 1.28; nuclear/cytoplasmic p65 ratio, rep 2: 1.2; low cell count flag: enough cells to score

What did the screen give for H3c7?
p65 translocation robust z-score: 2.28; nuclear/cytoplasmic p65 ratio, rep 1: 1.87; nuclear/cytoplasmic p65 ratio, rep 2: 1.58; low cell count flag: enough cells to score
